Assay results as given in publication PMC5700102, “Primer synthesis by a eukaryotic-like archaeal primase is independent of its Fe-S cluster” (Nature Communications, 2017).
No constants are given. Whether binding was seen depends on the method and setting. Some entries that bind do so weakly or less than the wild type.

Biological target: T1, PriS, catalytic subunit of the heterotrimeric primase PriSLX from S. solfataricus (S. solfataricus) (UniProt Q97Z83)
T1 sequence: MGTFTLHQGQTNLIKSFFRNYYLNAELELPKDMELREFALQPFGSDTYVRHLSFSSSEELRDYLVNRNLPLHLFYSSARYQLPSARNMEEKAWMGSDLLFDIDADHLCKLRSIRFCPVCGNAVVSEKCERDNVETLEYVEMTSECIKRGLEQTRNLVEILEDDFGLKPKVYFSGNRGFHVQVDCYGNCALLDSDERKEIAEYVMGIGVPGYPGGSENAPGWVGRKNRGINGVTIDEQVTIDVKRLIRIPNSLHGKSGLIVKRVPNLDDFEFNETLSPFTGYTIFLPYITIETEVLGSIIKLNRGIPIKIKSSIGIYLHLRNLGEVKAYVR
Assay: crystal structure; PriSLX heterotrimer, 2.9 Å; crystallised with 1 mM MnCl2, 2 mM AMPCPP and an RNA-DNA hybrid (not seen in the map); two heterotrimers in the asymmetric unit; both purified

binding: binds
B1: PriL, regulatory subunit of the heterotrimeric primase PriSLX from S. solfataricus (protein, UniProt Q9UWW1 1-307)
chain: MALDVKKYPFIKSLDDELKKYGGGITLTDLLLNSTTLIDQAKDRIQKTKSGDELPHYVSYNEPVLVFYTTLLSLAILNDVKLIRRYAYAEAKQFRSLLHTENEENLLEISKLLDLKINRCDPIKFYLEKKRRIIQKEFCVHFIDYLKYTKDLKEDWKLSGQILHKGYVYLDKNQLIGLIAESIKSKIVEMIRPLNLKEIPEKLKSLIERRGIIPPCIENILAKEKLNEEEIRTLITFYIDIGKGLSGIVSIMKKYNVSNVEDLYRKYRGDKGTRYIVYSCAKMKQLGLCVSSCNVKNPLQLYFLSNE
